Test results as given in the supplement of paper PMC7858590.
Values joined by “and” are separate entries in the source; they are usually repeats but may differ in a detail not shown here. Equal entries are not always repeated. ± gives the standard deviation of the averaged measurements. Whole data set: some 3,800 compounds, median “cell shape (eccentricity) Z-score vs DMSO control” near 1.1, cut for the lowest 2% near -4.7. The list shows a part of the results.

tested on: human monocyte-derived macrophages (M0); test: cell shape (eccentricity) Z-score vs DMSO control; higher = more elongated, M2-like morphology; conditions: 20 µM; 24 h; macrophage state: M0 (M-CSF)

Structure (SMILES) | cell shape (Z-score)
COC(=O)c1cccc(O)c1C(=O)c1c(O)cc(C)cc1O | -0.639
C[C@@H]1O[C@@H](O[C@@H]2[C@@H](O)[C@H](O[C@@H]3[C@@H](O)[C@@H](O)[C@H](O[C@H]4[C@H](OC(=O)[C@]56CCC(C)(C)C[C@H]5C5=CCC7[C@@]8(C)C[C@H](O)[C@H](O[C@@H]9O[C@H](C(=O)O)[C@@H](O)[C@H](O)[C@H]9O)[C@@](C)(CO)C8[C@H](O)C[C@@]7(C)[C@]5(C)C[C@H]6O)OC[C@H](O)[C@@H]4O)O[C@H]3C)OC[C@H]2O)[C@H](O)[C@H](O)[C@H]1O (stereo partly specified) | 0.295
C[C@@H]1O[C@@H](OC[C@H]2O[C@@H](Oc3ccc(O)cc3)[C@H](O)[C@@H](OC(=O)c3ccc(O)cc3)[C@@H]2O)[C@H](O)[C@H](O)[C@H]1O | 1.4 ± 3.5
NC(=O)c1ccc([N+](=O)[O-])cc1Cl | -0.000275
CN1C(C(=O)Nc2ccccn2)C(=O)c2sccc2S1(=O)=O (stereo unspecified) | 0.954
CCN(CC)CCCC(C)Nc1ccnc2cc(Cl)ccc12 (stereo unspecified) | -0.0406
CC(=O)O[C@H]1C[C@@H](OC(C)=O)C(C)(C)C2C[C@@H](OC(C)=O)[C@@]3(C)C4=CC(=O)O[C@@H](c5ccoc5)[C@]4(C)CCC3[C@]21C (stereo partly specified) | -1.63
COc1ccc(-n2c(SCc3nc(-c4ccc(C)cc4)no3)nnc2-c2ccncc2)cc1 | 4.45
CO[C@@]12[C@@H]3NC3CN1C1=C(C(=O)C(N)=C(C)C1=O)[C@@H]2COC(N)=O (stereo partly specified) | -5.51
CC(C)OC(=O)C(C(=O)OC(C)C)=C1SC=CS1 | 3.33
Cc1cc(C(C)(C)CC(C)(C)C)ccc1OCCOCC[N+](C)(C)Cc1ccccc1 | -4.7
COC(=O)C1=COC(O[C@@H]2O[C@H](CO)[C@@H](O)[C@H](O)[C@H]2O)[C@@H]2[C@@](C)(O)[C@@H](OC(=O)/C=C/c3ccc(OC)cc3)C[C@]12O (stereo partly specified) | 0.721
C1N2CN3CN1CN(C2)C3 | -0.477
Cc1[nH]c2ccccc2c1CCNCc1ccc(/C=C/C(=O)NO)cc1 | 4.88 and 5.32
CC(=O)OCCN1C(=O)c2c(C)nc3ccc(S(=O)(=O)N4CCOCC4)cc3c2C1=O | 0.322
COc1cc(C=CC(=O)N2CCN(CC(=O)NC(C)C)CC2)cc(OC)c1OC | -0.622
c1cc2c3c(c1)c1c(n3CCNC2)CCCC1 | 0.199
C=CCN1CCN(c2nc3ccccc3nc2C#N)CC1 | -0.547
c1cc(CN2CCCCC2)cc(OCCCNc2nc3ccccc3s2)c1 | -0.667

Structure (SMILES) | cell shape (Z-score)
COc1cc(C(=O)OC[C@@]2(O)CO[C@H](OC3C(CO)OC(Oc4cc(OC)c(OC)c(OC)c4)C(O)C3O)[C@@H]2O)cc(OC)c1O (stereo partly specified) | 1.66 ± 3.6
C[C@]12CCc3occc3C1CC[C@@]13C[C@@H](CCC12)[C@@](O)(CO)C3 (stereo partly specified) | 1.97
C=CC(C)(O)CC/C=C(\C)C(=O)OC1C2OC2(C)C2C(OC3OC(COC4OC(CO)C(O)C(O)C4O)C(O)C(O)C3O)OC=CC12O (stereo unspecified) | 1.5 ± 0.71
CCOC(=O)[C@H](CCc1ccccc1)N[C@H](C)C(=O)N1C2CCCCC2C[C@H]1C(=O)O (stereo partly specified) | 1.31
COc1cc(CCc2ccc3c(c2)OCO3)oc(=O)c1 | 2.03
COc1cc2ccc(=O)oc2cc1OCC=C(C)C | 2.46
O=C(OCC1=C[C@@H](O)[C@@H]2C=CO[C@@H](O[C@@H]3O[C@H](CO)[C@@H](O)[C@H](O)[C@H]3O)[C@H]12)c1ccc(O)cc1 | 2.02
COc1cc(OC)c2c(c1O)OC(c1ccccc1)CC2=O (stereo unspecified) | 1.12
O=C(CCCl)NCc1ccccc1 | 3.42
CC(C)C[C@H](NC(=O)[C@@H](O)[C@H](N)Cc1ccccc1)C(=O)O | 4.84
O=C(O)/C=C/c1ccccc1O[C@@H]1O[C@H](CO)[C@@H](O)[C@H](O)[C@H]1O | 1.56
COc1ccc(Cl)cc1C(=O)NCCc1ccc(S(=O)(=O)NC(=O)NC2CCCCC2)cc1 | 2.43
CC(C)=CCn1cnc(=N)c2[nH]cnc21 | 1.37
CC(C)(C)c1ccc(S(=O)(=O)NCc2ccc(C(=O)Nc3cccnc3)cc2)cc1 | 1.14
CCOC(=O)[C@H](CCc1ccccc1)N[C@H]1CCc2ccccc2N(CC(=O)O)C1=O | 2.38
CCCCCCCCCCCCCCCC(=O)OC[C@H](NC(=O)C(Cl)Cl)[C@H](O)c1ccc([N+](=O)[O-])cc1 | 3.85
COc1ccc2c(C)cc(=O)oc2c1 | 4.64
C=C[C@@](C)(O)CCC1C(=C)CCC2[C@@](C)(CO)CCC[C@]12C (stereo partly specified) | 4.09
CC1(C)C=Cc2c(c(CCO)c3occ(-c4ccc(O)c(O)c4)c(=O)c3c2O)O1 | 0.8 ± 0.24

Structure (SMILES) | cell shape (Z-score)
COc1c(-c2coc3cc4c(cc3c2=O)CC(O)C(C)(C)O4)ccc2c1C=CC(C)(C)O2 (stereo unspecified) | -0.764
CC(C)(C)NCC(O)COc1cccc2c1C[C@H](O)[C@H](O)C2 (stereo partly specified) | 3.94
CCCc1ncc(C[n+]2ccccc2C)c(N)n1 | -0.886
NCCCC(=O)O | -0.672
CNc1cc2c(Nc3cccc(Br)c3)ncnc2cn1 | -0.207
COC1=CC(=O)CC(C)C12Oc1cc(OC)cc(O)c1C2=O (stereo unspecified) | 1.27
CN1CCc2cc3c(cc2C2OC(O)c4c(ccc5c4OCO5)C21)OCO3 (stereo unspecified) | 0.865
O=C1Nc2cc(Cl)ccc2Oc2ccccc21 | -1.93
COc1ccc(C2OCC3C2CO[C@H]3c2ccc(OC)c(OC)c2)cc1OC (stereo partly specified) | 1.89 ± 1.2
COC(=O)C1=C(C)NC(C)=C(C(=O)OC(C)C)C1c1cccc2nonc12 (stereo unspecified) | -1.25
CCCCC(=O)NCCc1c(Cc2ccccc2)[nH]c2ccccc12 | 0.707
Cc1cc2c(F)c(Oc3ncnn4cc(OC[C@@H](C)O)c(C)c34)ccc2[nH]1 | 3.4
COc1ccc([C@@H]2O[C@@H](c3ccc(OC)c(OC)c3)[C@@H](C)[C@@H]2C)cc1OC | 1.4
COC(=O)C1(Cc2ccc(O)c(CC3OC3(C)C)c2)OC(=O)C(=O)C1c1ccc(O)cc1 (stereo unspecified) | 3.21
CC(C)(O)CC[C@@H](O)[C@](C)(O)C1CC[C@@]2(O)C3=CC(=O)C4C[C@@H](O)[C@@H](O)C[C@]4(C)C3CC[C@]12C (stereo partly specified) | 1.26
Oc1ccc2c(c1)OCC1(O)Cc3cc(O)c(O)cc3C21 (stereo unspecified) | 1.27
CC(=O)[C@@]1(O)CCC2C3C[C@H](C)C4=CC(=O)C=CC4(C)[C@@]3(F)[C@@H](O)C[C@@]21C (stereo partly specified) | -2.14
Oc1ccc(-c2nc(-c3ccc(F)cc3)c(-c3ccncc3)[nH]2)cc1 | -5.27

Shown as a markdown table: five of the compounds above.

| Structure (SMILES) | cell shape (Z-score) |
| --- | --- |
| C1N2CN3CN1CN(C2)C3 | -0.477 |
| Cc1[nH]c2ccccc2c1CCNCc1ccc(/C=C/C(=O)NO)cc1 | 4.88 and 5.32 |
| CC(=O)OCCN1C(=O)c2c(C)nc3ccc(S(=O)(=O)N4CCOCC4)cc3c2C1=O | 0.322 |
| COc1cc(C=CC(=O)N2CCN(CC(=O)NC(C)C)CC2)cc(OC)c1OC | -0.622 |
| c1cc2c3c(c1)c1c(n3CCNC2)CCCC1 | 0.199 |
